Reference: PubChem BioAssay AID1224826 (NIAID, 2016)

Assay: 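Genes that change LPS-induced Tnf promoter activity in mouse macrophages when knocked down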 (primary screen)
Cells: RAW264.7 G9 macrophages from mouse bearing reporters for p65 (GFP) and the Tnf promoter (mCherry)
Reagent: siRNA pool against mouse genes, 100 nM
Time to read-out: 16 h of LPS stimulation, after 2 days of siRNA transfection
Challenge: bacterial lipopolysaccharide (Salmonella minnesota R595), 10 ng/ml
Measurement: 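Nuclear mCherry signal of the Tnf promoter reporter measured by imaging after background removal, scaled to each plate median and turned into robust z-scores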
Scale: Tnf reporter robust z-score: higher = stronger Tnf promoter reporter signal after LPS; Tnf reporter intensity: higher = stronger Tnf promoter reporter signal
Rule for the call: 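Called active when robust z-score is at most -1.3, matching the median of the Tlr4 knock-down control, or over 3; control wells and wells with under 50 cells never active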
Calls: active = Tnf reporter clearly lowered or raised; inactive = no clear change in Tnf reporter
Here is a random part of about 17,000 deposited reagents. Of all reagents, about 1,110 (6.6%) got an active call. 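Active means lowered or raised reporter signal; replicate intensities are raw and not normalised per plate.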 A number with no mark means an inactive call. Further read-outs or replicates are left out here.

Target gene | Tnf reporter robust z-score | fewer than 50 cells in well | Tnf reporter intensity, replicate 1
Fetub (GeneID 59083) | -0.99 | enough cells in well | 119
Ccr10 (GeneID 12777) | 0.1 | enough cells in well | 217
Aasdh (GeneID 231326) | 0.26 | enough cells in well | 195
C1ql3 (GeneID 227580) | – | fewer than 50 cells per well; well left out of calls | 86
Tmem87a (GeneID 211499) | -0.06 | enough cells in well | 143
Or13c7c (GeneID 100040268) | 0 | enough cells in well | 184
Bag6 (GeneID 224727) | -0.58 | enough cells in well | 180
Cd74 (GeneID 16149) | -0.73 | enough cells in well | 177
Ccm2 (GeneID 216527) | -1.05 | enough cells in well | 90.1
Lce1g (GeneID 66195) | -0.7 | enough cells in well | 207
Nsun4 (GeneID 72181) | 0.95 | enough cells in well | 238
Kremen2 (GeneID 73016) | 0.55 | enough cells in well | 254
Or14j5 (GeneID 258892) | 0.36 | enough cells in well | 213
Rab14 (GeneID 68365) | 1.21 | enough cells in well | 172
Rhoq (GeneID 104215) | 0.79 | enough cells in well | 367
Iffo1 (GeneID 320678) | 0.21 | enough cells in well | 91.8
Defb12 (GeneID 77674) | – | fewer than 50 cells per well; well left out of calls | 130
Sun3 (GeneID 194974) | – | fewer than 50 cells per well; well left out of calls | 22.5
Txndc8 (GeneID 67402) | – | fewer than 50 cells per well; well left out of calls | 355
Ntn1 (GeneID 18208) | 0.52 | enough cells in well | 333
Ern1 (GeneID 78943) | -0.78 | enough cells in well | 141
Sytl2 (GeneID 83671) | 0.78 | enough cells in well | 171
Czib (GeneID 74098) | 3.31 (active) | enough cells in well | 406
Atp6v0c (GeneID 11984) | 0.44 | enough cells in well | 211
Capn12 (GeneID 60594) | 2.21 | enough cells in well | 270
Or2b7 (GeneID 404335) | -0.18 | enough cells in well | 174
Mst1 (GeneID 15235) | 0.6 | enough cells in well | 311
Adamts12 (GeneID 239337) | -0.38 | enough cells in well | 120
Sprr3 (GeneID 20766) | 1.26 | enough cells in well | 176
Cib1 (GeneID 23991) | -0.35 | enough cells in well | 244
Fam174a (GeneID 67698) | 0.31 | enough cells in well | 170
Med12 (GeneID 59024) | -1.18 | enough cells in well | 135
Zfp740 (GeneID 68744) | 0.37 | enough cells in well | 315
Dnaaf2 (GeneID 109065) | 0.63 | enough cells in well | 330
Slc14a1 (GeneID 108052) | -1.36 (active) | enough cells in well | 129
Pcdh1 (GeneID 75599) | – | fewer than 50 cells per well; well left out of calls | 134
Nbeal1 (GeneID 269198) | 0.99 | enough cells in well | 185
Mrpl57 (GeneID 67840) | 4.08 (active) | enough cells in well | 642

Ordered by “Tnf reporter robust z-score” (low to high): 4 of the entries above
Target gene | Tnf reporter robust z-score | fewer than 50 cells in well | Tnf reporter intensity, replicate 1
Or2b7 (GeneID 404335) | -0.18 | enough cells in well | 174
Atp6v0c (GeneID 11984) | 0.44 | enough cells in well | 211
Mst1 (GeneID 15235) | 0.6 | enough cells in well | 311
Capn12 (GeneID 60594) | 2.21 | enough cells in well | 270

More entries:
Target gene | Tnf reporter robust z-score | fewer than 50 cells in well | Tnf reporter intensity, replicate 1
Rph3al (GeneID 380714) | -0.44 | enough cells in well | 105
Rbks (GeneID 71336) | -0.45 | enough cells in well | 164
Dscc1 (GeneID 72107) | – | fewer than 50 cells per well; well left out of calls | 202
Ccnf (GeneID 12449) | 0.44 | enough cells in well | 280
Rwdd2b (GeneID 53858) | 0.45 | enough cells in well | 153
Il36g (GeneID 215257) | -0.23 | enough cells in well | 181
Hoxb3 (GeneID 15410) | -0.31 | enough cells in well | 194
Rpl18 (GeneID 19899) | -0.83 | enough cells in well | 72.9
Ago4 (GeneID 76850) | 0.01 | enough cells in well | 171
Htr1a (GeneID 15550) | 0.04 | enough cells in well | 239
Klhdc7a (GeneID 242721) | 0.05 | enough cells in well | 165
Ugt2b38 (GeneID 100559) | 0.6 | enough cells in well | 227
Sidt1 (GeneID 320007) | -0.04 | enough cells in well | 188
Scgb3a2 (GeneID 117158) | 0.51 | enough cells in well | 365
Chpt1 (GeneID 212862) | -0.45 | enough cells in well | 204
Or4c125 (GeneID 258974) | -0.38 | enough cells in well | 177
Timmdc1 (GeneID 76916) | – | fewer than 50 cells per well; well left out of calls | 224
Mcptl (GeneID 17233) | 0.29 | enough cells in well | 175
Zfp236 (GeneID 329002) | -1.08 | enough cells in well | 90.8
Mtmr14 (GeneID 97287) | -0.02 | enough cells in well | 289
